The text below walks through data of patent US20190119364A1.

By UniProt entry, the sequences of proteins in these tests, tags left out. Where a name states a change or a piece, a line headed by the entry shows the natural chain unless it says otherwise.
UniProt P25440: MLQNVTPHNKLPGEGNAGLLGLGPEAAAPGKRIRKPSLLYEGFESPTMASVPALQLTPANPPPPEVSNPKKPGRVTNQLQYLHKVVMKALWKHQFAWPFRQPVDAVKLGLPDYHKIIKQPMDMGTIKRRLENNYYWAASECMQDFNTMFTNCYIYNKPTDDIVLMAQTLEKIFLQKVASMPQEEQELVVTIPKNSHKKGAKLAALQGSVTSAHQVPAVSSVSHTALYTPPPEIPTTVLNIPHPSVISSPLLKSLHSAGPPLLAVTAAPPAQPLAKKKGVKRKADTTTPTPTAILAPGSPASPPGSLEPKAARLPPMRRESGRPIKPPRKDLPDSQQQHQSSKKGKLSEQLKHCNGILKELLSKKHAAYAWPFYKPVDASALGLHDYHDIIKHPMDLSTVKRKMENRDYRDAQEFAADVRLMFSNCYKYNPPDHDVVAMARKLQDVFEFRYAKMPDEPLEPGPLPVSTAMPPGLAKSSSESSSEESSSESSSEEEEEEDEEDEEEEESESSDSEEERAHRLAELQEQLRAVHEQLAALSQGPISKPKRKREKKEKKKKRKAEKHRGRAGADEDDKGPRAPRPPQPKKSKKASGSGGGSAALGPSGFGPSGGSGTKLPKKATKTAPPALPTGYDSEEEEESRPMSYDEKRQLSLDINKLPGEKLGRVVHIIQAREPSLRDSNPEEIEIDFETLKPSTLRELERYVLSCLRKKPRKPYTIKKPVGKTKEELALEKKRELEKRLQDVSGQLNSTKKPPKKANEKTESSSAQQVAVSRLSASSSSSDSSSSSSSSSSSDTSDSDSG

Test [1] deals with Bromodomain-containing protein 2 (BRD2) (Homo sapiens (Human)) (UniProt P25440). Kind of test: co-immunoprecipitation in 293A cells, western blot. A general note: Immunoblotting shows a protein as a band on a membrane.
For test [2] the target is unchanged. Nature of the test: co-immunoprecipitation, protein gel image (FIG. 21).

No constants are given. Whether binding was seen depends on the method and setting. Binding seen in cells or lysates may run through a third protein. Some binding calls cover weakened binding; strength is not graded here. Tags and fused reporters may be left off the sequences shown.

B1: HDAC11 (histone deacetylase 11) (enzyme)
chain: MLHTTQLYQHVPETRWPIVYSPRYNITFMGLEKLHPFDAGKWGKVINFLKEEKLLSDSMLVEAREASEEDLLVVHTRRYLNELKWSFAVATITEIPPVIFLPNFLVQRKVLRPLRTQTGGTIMAGKLAVERGWAINVGGGFHHCSSDRGGGFCAYADITLAIKFLFERVEGISRATIIDLDAHQGNGHERDFMDDKRVYIMDVYNRHIYPGDRFAKQAIRRKVELEWGTEDDEYLDKVERNIKKSLQEHLPDVVVYNAGTDILEGDRLGGLSISPAGIVKRDELVFRMVRGRRVPILMVTSGGYQKRTARIIADSILNLFGLGLIGPESPSVSAQNSDTPLLPPAVP
In the case of B1, the binding result in test [1] and in test [2] was “binds” throughout.
